No constants are given. Whether binding was seen depends on the method and setting. Binding seen in cells or lysates may run through a third protein. Some entries that bind do so weakly or less than the wild type. For some assays here: Tags and fused reporters may be left off the sequences shown.
T1: N-cadherin GFP11 (chick, UniProt P10288 165-912)
T1 construct: Synthesized by GenScript; also called N-cad GFP11; N-cad GFP 11; source: CHO cells, transfected, in cells; chick embryo, electroporated in ovo into trigeminal placode cells; not shown: split GFP subunit 11 (GFP11), N-terminal, kept
T1 sequence (looked up): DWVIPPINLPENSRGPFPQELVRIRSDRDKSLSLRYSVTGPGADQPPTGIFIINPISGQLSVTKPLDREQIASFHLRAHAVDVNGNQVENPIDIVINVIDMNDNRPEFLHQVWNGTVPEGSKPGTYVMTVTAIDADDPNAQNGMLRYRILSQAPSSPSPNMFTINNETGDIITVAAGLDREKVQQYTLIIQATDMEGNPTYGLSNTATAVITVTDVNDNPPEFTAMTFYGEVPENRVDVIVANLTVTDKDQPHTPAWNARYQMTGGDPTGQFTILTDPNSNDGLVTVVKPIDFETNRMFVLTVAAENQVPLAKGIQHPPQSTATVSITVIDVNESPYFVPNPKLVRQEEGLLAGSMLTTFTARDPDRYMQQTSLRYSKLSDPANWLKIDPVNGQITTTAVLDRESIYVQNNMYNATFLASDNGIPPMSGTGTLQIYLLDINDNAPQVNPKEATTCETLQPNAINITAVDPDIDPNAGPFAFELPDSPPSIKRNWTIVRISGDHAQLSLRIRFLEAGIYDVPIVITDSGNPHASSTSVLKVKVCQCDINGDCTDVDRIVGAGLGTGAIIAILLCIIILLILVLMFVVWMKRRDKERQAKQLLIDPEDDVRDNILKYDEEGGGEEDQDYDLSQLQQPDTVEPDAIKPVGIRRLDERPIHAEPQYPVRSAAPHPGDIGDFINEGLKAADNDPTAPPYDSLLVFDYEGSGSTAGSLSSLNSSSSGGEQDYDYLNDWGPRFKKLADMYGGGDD

B1: N-cadherin GFP1-10 (natural protein, chick, UniProt P10288 165-912, looked up)
chain: T1 sequence (looked up)
notes: Synthesized by GenScript; also called N-cad GFP1-10; N-cad GFP 1-10; source: CHO cells, transfected, in cells; chick embryo, electroporated in ovo into trigeminal placode cells; not shown: split GFP subunits 1-10 (GFP1-10), N-terminal, kept
B2: Cadherin-7 (protein, UniProt Q90763 48-785)
chain: SWVWNQFFVLEEYMGSDPLYVGKLHSDVDKGDGSIKYILSGEGASSIFIIDENTGDIHATKRLDREEQAYYTLRAQAHDRLTNKPVEPESEFVIKIQDINDNEPKFLDGPYTAGVPEMSPVGTSVVQVTATDADDPTYGNSARVVYSILQGQPYFSVEPKTGIIKTALPNMDREAKDQYLLVIQAKDMVGQNGGLSGTTSVTVTLTDVNDNPPRFPRRSYQYNVPESLPLASVVARIKAADADVGPNAEMEYKIVDGDGLGVFKISVDKDTQEGIITIQKELDFEAKTSYTLRIEAANMHVDPRFLSLGPFSDMTTVKIIVEDVDEPPVFTSRLYSMVVSEAAKVGTIIGTVAAHDPDASNSPVRYSIDRNTDLERYFNIDANSGVITTAKSLDRETNAVHNITVLAMESQNPAQIGRGYVAITILDINDNAPEFAMEYETTVCENAQPGQIIQKISAIDKDDPPNGHQFYFSLTAEAANNHNFTLQDNKDNTATVLTRRNGFRRQEQSVFYLPIFIVDSGSPSLSSTNTLTIRVCDCDADGIAQTCNAEAYILPAGLSTGALIAILACVLTLLVLVLLIVTMRRRKKEPLIFDEERDIRENIVRYDDEGGGEEDTEAFDMAALRNLNIIRDTKTRRDVTPEIQFLSRPTFKSIPDNVIFREFIWERLKEADVDPCAPPYDSLQTYAFEGNGSVAESLSSLDSISSNSDQNYDYLSDWGPRFKRLADMYGSGPDCLYS
B3: Cadherin-7 GFP1-10 (natural protein, chick, UniProt Q90763 48-785, looked up)
chain: B2 chain
notes: Synthesized by GenScript; also called Cad7 GFP1-10; source: CHO cells, transfected, in cells; chick embryo, electroporated in ovo into premigratory neural crest cells; not shown: split GFP subunits 1-10 (GFP1-10), N-terminal, kept
B4: Cadherin-7 GFP11 (natural protein, chick, UniProt Q90763 48-785, looked up)
chain: B2 chain
notes: Synthesized by GenScript; also called Cad7 GFP11; Cad711; source: CHO cells, transfected, in cells; chick embryo, electroporated in ovo into premigratory neural crest cells; not shown: split GFP subunit 11 (GFP11), N-terminal, kept

Tests used:
[1] = molecular target: T1, N-cadherin GFP11; test: split reporter; GRASP in vivo, in cis: co-electroporation of both N-cadherin split GFP constructs into trigeminal placode cells of chick embryos; GFP on transverse sections, GFP+ cells/N-cad+ cells
[2] = molecular target: T1, N-cadherin GFP11; test: split reporter; GRASP (split GFP1-10 / GFP11 on the cadherin extracellular domain); both constructs co-transfected into CHO cells (in cis); GFP fluorescence by confocal imaging, GFP+ cells/DAPI+ cells
[3] = molecular target: neural cadherin (N-cadherin) (chick (endogenous in trigeminal ganglia of HH15-16 embryos)) (UniProt P10288); test: co-IP; lysate of dissected HH15-16 chick trigeminal ganglia (50 mM Tris pH 8.0, 150 mM NaCl, 1% IGEPAL CA-630); IP with rabbit polyclonal N-cadherin antibody overnight at 4°C, protein A/G magnetic beads; immunoblot for Cadherin-7; normal rabbit IgG as control
[4] = molecular target: B4; test: split reporter; GRASP (split GFP1-10 / GFP11 on the cadherin extracellular domain); both constructs co-transfected into CHO cells (in cis); GFP fluorescence by confocal imaging, GFP+ cells/DAPI+ cells
[5] = molecular target: T1, N-cadherin GFP11; test: split reporter; GRASP in vivo, in trans: sequential in ovo electroporation of a Cadherin-7 split GFP construct into premigratory neural crest cells and of the complementary N-cadherin split GFP construct into trigeminal placode cells of chick embryos; GFP on transverse sections of the trigeminal ganglion at …
[6] = molecular target: B1; test: split reporter; GRASP (split GFP1-10 / GFP11 on the cadherin extracellular domain); both constructs co-transfected into CHO cells (in cis); GFP fluorescence by confocal imaging, GFP+ cells/DAPI+ cells
[7] = molecular target: B1; test: split reporter; GRASP in vivo, in trans: sequential in ovo electroporation of a Cadherin-7 split GFP construct into premigratory neural crest cells and of the complementary N-cadherin split GFP construct into trigeminal placode cells of chick embryos; GFP on transverse sections of the trigeminal ganglion at …

Binder: B1
binding [1]: binds | binding [2]: binds

Binder: B2
binding [3]: binds

Binder: B3
binding [4]: binds | binding [2]: binds | binding [5]: binds

Binder: B4
binding [6]: binds | binding [7]: binds

Reference: publication PMC9475207, “Neural crest cell-placodal neuron interactions are mediated by Cadherin-7 and N-cadherin during early chick trigeminal ganglion assembly” (F1000Research, 2022)
